Some entries share one result that the patent states for a list of compounds.
What follows are sequences tested on spontaneously hypertensive rats (SHR) (assay: Antihypertensive activity after acute intragastric administration in hypertensive rats (tail-cuff)). Conditions: Example 10; peptides 10 mg/kg bw.
Format: in vivo, rat
Protocol: For the study, male SHR rats 17-20 weeks old and weighing between 310 and 360 g, from Charles River Laboratories España S.A. were used. The rats remained at a stable ambient temperature of 23° C., and with light-dark cycles of 12 hours, eating food and water ad-libitum.
The BP measurement in these animals was carried out with a modification of the tail-cuff technique, following the methodology and equipment described by Mas-Capdevila et al. 2018. The measurement of the SBP was performed prior to the administration of the treatments and after their administration at 2, 4, 6, 8, 24 and 48 h. The treatments consisted of the acute administration of a dose of 5 mL/kg bw of the different wine lees (supernatant collected after centrifugation at 2,950×g, 15 min, 4° C.). The effect of water administration (1.5 mL, negative control) was also evaluated in order to know the circadian variation of SBP in rats and of captopril (50 mg/kg bw dissolved in 1.5 mL of water), antihypertensive drug used as a positive control. The administration of all the treatments was carried out by means of an intragastric tube at between 9 and 10 a.m.
The SBP and DBP results are represented as a decrease in SBP or DBP at different times with respect to the SBP or DBP observed at 0 h (without treatment) for each animal (FIG. 1). Each data represents the mean±the ESM (n=6). Furthermore, the data of the different groups were compared in a 2-way analysis of variance (ANOVA) using the Tukey test at each post-administration time with the SPSS statistical program (IBM SPSS Statistics software version 20.0) and the difference was considered significant for p values <0.05.
In the present example, the effect of dry UVC wine lees, without alcohol, on its antihypertensive activity is described by means of its acute administration to SHR rats. The study was carried out following the method and conditions described in Example 3. The treatments that were evaluated consisted of the acute administration of water (1.5 mL), captopril (50 mg/kg bw), UVC wine lees (5 mL/kg bw), or the same lyophilized lees (125 mg/kg bw). The tested dose of lyophilized lees (125 mg/kg bw) corresponded to the same amount of dry product that is in 5 mL/kg bw of the wine lees. Solid state treatments were diluted in water for administration to animals. […] In fact, it increased its effectiveness from the two hours after its administration, producing a drop in systolic blood pressure of −33 mmHg compared to −12 mmHg, a drop produced by those without drying. Furthermore, its effect was more prolonged in time. Specifically, lyophilized UVC wine lees produced a drop in SBP of −41 mmHg at 24 h post-administration.
The antihypertensive effect of the “hydrolysate 3” was studied for 72 h (0, 2, 4, 6, 8, 24, 48, and 72 h), after its administration by intragastric tube. As in Example 3, negative and positive BP controls were performed, obtained after administration of water and captopril (50 mg/kg bw) respectively, in a volume of 1.5 mL per animal. The antihypertensive activity of the wine lees used to prepare “hydrolysate 3” and “hydrolysate 3” was evaluated, both at a dose of 5 mL/kg bw. The lees used in these tests were from a different batch than the one used in Example 3. […]
In the case of “LDSPSEGRAPGAD (Synthesized peptide P6) [peptide identified in hydrolysate 3, chemically synthesized]”, the “decrease in SBP” value is reported as “more than 10 mmHg”. For “LDSPSEGRAPG (Synthesized peptide P5) [peptide identified in hydrolysate 3, chemically synthesized]”, the “decrease in SBP” value was “more than 10 mmHg”. “FKTTDQQTRTTVA (Synthesized peptide P1) [peptide identified in hydrolysate 3, chemically synthesized]” was tested, and the “decrease in SBP” value was “more than 10 mmHg”. “NPKLVTIV (Synthesized peptide P2) [peptide identified in hydrolysate 3, chemically synthesized]” was tested, and the “decrease in SBP” value was “more than 10 mmHg”. With “TVTNPARIA (Synthesized peptide P3) [peptide identified in hydrolysate 3, chemically synthesized]” the “decrease in SBP” value was “more than 10 mmHg”.
